In this experiment the target is T1, Egalitarian (Egl) (Drosophila (endogenous in ovaries and embryos)) (UniProt Q9W1K4).
T1 sequence: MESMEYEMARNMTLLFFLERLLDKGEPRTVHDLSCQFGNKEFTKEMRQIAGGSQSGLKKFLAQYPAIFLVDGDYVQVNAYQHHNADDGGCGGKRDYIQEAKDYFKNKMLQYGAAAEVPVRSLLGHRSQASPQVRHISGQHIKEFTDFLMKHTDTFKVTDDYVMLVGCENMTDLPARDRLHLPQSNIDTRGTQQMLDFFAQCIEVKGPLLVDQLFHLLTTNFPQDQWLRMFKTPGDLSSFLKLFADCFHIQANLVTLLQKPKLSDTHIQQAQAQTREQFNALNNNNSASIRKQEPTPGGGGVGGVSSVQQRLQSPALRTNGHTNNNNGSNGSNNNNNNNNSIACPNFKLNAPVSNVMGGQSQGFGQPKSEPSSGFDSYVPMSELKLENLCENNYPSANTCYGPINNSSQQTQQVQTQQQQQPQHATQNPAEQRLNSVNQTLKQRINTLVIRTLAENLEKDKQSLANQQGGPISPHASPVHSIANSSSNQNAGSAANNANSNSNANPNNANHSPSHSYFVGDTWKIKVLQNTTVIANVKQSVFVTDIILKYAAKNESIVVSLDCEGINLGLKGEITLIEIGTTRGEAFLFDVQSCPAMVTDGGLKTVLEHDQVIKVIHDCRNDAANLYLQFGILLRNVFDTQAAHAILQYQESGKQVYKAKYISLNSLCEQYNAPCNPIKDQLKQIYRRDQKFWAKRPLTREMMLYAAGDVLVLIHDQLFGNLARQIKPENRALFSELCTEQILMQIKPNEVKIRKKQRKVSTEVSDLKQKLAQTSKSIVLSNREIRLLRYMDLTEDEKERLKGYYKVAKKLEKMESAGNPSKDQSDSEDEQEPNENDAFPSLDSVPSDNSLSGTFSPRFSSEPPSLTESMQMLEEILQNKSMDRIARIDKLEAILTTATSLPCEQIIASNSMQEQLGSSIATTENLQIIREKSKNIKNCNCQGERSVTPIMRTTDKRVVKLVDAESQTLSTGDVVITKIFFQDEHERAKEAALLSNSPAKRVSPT
Description: condition: only under the stringent purification conditions used in RIP; co-IP; under RIP conditions: anti-Egl on Dynabeads Protein A, ovary lysate of nosGal4; UAS-HeT-A-HA; UAS-spnE_sh flies; lysis buffer 10 mM HEPES pH 7.0, 100 mM KCl, 5 mM MgCl2, 0.5% NP-40, diluted in NT2 buffer; 2 h at 4°C; Western blot of 1/10 of the beads; control normal rabbit IgG.

These are yes or no findings as the source states them, for the method shown. Binding seen in cells or lysates may run through a third protein.

Regarding HeT-A Gag-HA (Drosophila), the binding result is reported as “no binding”.

The record behind these values is publication PMC6114517.
